This passage reports binding results from publication PMC10575587.

Chains of the proteins cited; added tags and fusions are not shown. Lines headed by an entry give the natural chain unless they say otherwise; changes in a name come on top.
UniProt P63208: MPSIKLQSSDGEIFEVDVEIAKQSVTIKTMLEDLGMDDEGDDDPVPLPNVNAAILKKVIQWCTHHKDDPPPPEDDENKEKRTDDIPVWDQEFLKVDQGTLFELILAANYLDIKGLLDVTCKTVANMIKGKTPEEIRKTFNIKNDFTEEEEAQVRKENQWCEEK

Assay [1] deals with Flag-tagged SKP1^K142R/K163R (SKP1^RR) (UniProt P63208). The experiment in a line: affinity purification with mass spectrometry; anti-FLAG agarose IP of Flag-SKP1^WT or SKP1^RR from HEK293T co-transfected with HA-SUMO1, Myc-UBC9 and SLX4; eluted with 3x FLAG peptide.
The next assay concerns the target Flag-tagged SKP1^WT (UniProt P63208). The assay is described as above.

Results are given in words; binding and its absence hold for the method and conditions named. Binding seen in cells or lysates may run through a third protein. Here binding means that the protein was enriched with, or labelled near, the bait; the list need not be complete.

B1: PPM1B (in HEK293T lysate) (enzyme, UniProt O75688 1-479)
chain: MGAFLDKPKTEKHNAHGAGNGLRYGLSSMQGWRVEMEDAHTAVVGIPHGLEDWSFFAVYDGHAGSRVANYCSTHLLEHITTNEDFRAAGKSGSALELSVENVKNGIRTGFLKIDEYMRNFSDLRNGMDRSGSTAVGVMISPKHIYFINCGDSRAVLYRNGQVCFSTQDHKPCNPREKERIQNAGGSVMIQRVNGSLAVSRALGDYDYKCVDGKGPTEQLVSPEPEVYEILRAEEDEFIILACDGIWDVMSNEELCEYVKSRLEVSDDLENVCNWVVDTCLHKGSRDNMSIVLVCFSNAPKVSDEAVKKDSELDKHLESRVEEIMEKSGEEGMPDLAHVMRILSAENIPNLPPGGGLAGKRNVIEAVYSRLNPHRESDGASDEAEESGSQGKLVEALRQMRINHRGNYRQLLEEMLTSYRLAKVEGEESPAEPAATATSSNSDAGNPVTMQESHTESESGLAELDSSNEDAGTKMSGEKI
Turning to B1, the binding result (in assay [1]; with Flag-tagged SKP1^WT) was “binds” in each case.
